Some of the results follow. The calls rarely recur for the same compound in another form.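 Kinases, fused to nanoluciferase, were expressed in K562 cells; luminescence was measured every 4 h from 2 to 18 h as percent of control (DMSO = 100%, positive control = 0%). A time point is decreased if signal falls significantly (2 sigma). Hits were called by the authors by a rule that is not shown; the count of time points alone does not decide it.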
Assays:
Experiment in all cases: kinase-Nluc reporter destabilization hit call (1 = scored as downregulated) (binary); higher = compound decreases kinase abundance
Conditions in all cases: K562; 2-18 h
[1] = target: IRAK3 (UniProt Q9Y616)
[2] = target: JAK1 (UniProt P23458)
[3] = target: LCK (UniProt P06239)
[4] = target: LIMK1 (UniProt P53667)
[5] = target: LIMK2 (UniProt P53671)
[6] = target: LMTK2 (UniProt Q8IWU2)
[7] = target: LYN (UniProt P07948)
[8] = target: MAP2K1 (UniProt Q02750)
[9] = target: MAP2K2 (UniProt P36507)
[10] = target: MAP4K2 (UniProt Q12851)
[11] = target: MAPK1 (UniProt P28482)
[12] = target: MAPK4 (UniProt P31152)
[13] = target: MAPKAPK2 (UniProt P49137)
[14] = target: MKNK1 (UniProt Q9BUB5)
[15] = target: NTRK2 (UniProt Q16620)
[16] = target: NTRK3 (UniProt Q16288)
[17] = target: PAK4 (UniProt O96013)
[18] = target: PBK (UniProt Q96KB5)
[19] = target: PDGFRB (UniProt P09619)
[20] = target: PDK1 (UniProt Q15118)

The chains behind the UniProt entries cited, without tags or fusion partners. Where a name states a change or a piece, a line headed by the entry shows the natural chain unless it says otherwise.
UniProt P23458: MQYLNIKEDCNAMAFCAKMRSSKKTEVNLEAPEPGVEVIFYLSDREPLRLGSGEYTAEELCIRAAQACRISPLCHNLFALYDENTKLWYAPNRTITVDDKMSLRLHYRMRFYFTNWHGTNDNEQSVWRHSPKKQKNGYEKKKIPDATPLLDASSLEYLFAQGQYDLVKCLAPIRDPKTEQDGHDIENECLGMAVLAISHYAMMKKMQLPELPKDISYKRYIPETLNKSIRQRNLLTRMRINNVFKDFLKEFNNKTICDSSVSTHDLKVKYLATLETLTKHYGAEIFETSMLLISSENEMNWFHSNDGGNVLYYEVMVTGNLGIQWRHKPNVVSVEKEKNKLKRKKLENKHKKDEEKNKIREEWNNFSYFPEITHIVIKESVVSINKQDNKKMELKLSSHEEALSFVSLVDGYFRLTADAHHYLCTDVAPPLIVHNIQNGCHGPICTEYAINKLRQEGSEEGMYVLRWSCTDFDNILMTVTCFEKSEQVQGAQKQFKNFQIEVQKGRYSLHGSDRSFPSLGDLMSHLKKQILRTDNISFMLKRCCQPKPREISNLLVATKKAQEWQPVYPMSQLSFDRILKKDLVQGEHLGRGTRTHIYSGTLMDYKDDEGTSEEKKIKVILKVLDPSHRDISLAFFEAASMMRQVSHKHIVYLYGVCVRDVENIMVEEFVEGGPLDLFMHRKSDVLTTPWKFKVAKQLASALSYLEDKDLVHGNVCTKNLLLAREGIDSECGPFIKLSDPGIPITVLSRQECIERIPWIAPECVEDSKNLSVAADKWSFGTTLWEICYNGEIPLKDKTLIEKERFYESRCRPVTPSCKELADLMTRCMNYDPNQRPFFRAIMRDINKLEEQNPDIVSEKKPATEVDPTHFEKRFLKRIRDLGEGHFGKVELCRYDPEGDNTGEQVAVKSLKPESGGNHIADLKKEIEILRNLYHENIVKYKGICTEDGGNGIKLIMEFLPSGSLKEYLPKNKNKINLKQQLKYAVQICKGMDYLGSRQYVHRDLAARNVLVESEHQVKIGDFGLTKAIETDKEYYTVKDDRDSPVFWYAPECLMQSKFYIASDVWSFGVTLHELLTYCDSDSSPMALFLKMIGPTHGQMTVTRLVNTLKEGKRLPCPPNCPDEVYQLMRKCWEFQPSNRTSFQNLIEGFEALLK
UniProt P53667: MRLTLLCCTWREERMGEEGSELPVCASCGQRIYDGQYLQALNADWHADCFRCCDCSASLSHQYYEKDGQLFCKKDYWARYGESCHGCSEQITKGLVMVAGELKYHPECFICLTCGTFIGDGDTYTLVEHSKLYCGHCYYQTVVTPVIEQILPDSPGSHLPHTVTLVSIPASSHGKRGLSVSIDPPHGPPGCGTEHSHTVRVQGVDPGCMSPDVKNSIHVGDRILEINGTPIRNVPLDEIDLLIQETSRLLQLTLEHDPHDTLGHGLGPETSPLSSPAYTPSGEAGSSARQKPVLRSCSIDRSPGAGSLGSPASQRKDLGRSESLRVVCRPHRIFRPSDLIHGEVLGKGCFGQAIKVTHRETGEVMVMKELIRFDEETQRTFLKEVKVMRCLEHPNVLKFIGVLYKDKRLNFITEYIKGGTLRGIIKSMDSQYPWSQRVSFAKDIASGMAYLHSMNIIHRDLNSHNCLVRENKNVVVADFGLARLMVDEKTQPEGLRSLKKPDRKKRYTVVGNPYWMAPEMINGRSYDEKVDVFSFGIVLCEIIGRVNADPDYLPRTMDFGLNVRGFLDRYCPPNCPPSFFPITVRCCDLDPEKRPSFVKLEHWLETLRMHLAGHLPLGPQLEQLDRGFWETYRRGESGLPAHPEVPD
UniProt P53671: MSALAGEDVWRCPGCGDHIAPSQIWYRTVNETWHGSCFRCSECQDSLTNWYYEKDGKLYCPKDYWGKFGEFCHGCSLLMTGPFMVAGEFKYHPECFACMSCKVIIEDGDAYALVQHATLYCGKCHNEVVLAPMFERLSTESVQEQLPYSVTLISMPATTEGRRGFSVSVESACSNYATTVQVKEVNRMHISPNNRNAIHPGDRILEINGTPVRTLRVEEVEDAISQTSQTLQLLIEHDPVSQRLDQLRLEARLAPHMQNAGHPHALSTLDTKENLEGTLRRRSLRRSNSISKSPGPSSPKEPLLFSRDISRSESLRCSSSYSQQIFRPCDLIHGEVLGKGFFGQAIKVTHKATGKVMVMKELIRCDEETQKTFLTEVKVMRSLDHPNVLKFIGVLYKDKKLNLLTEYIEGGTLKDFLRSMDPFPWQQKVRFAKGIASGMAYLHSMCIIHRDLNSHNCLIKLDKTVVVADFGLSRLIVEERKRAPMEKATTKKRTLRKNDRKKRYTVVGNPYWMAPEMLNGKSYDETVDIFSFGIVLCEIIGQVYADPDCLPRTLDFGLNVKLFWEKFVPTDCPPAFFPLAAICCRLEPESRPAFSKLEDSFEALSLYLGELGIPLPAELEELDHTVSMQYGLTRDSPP
UniProt Q8IWU2: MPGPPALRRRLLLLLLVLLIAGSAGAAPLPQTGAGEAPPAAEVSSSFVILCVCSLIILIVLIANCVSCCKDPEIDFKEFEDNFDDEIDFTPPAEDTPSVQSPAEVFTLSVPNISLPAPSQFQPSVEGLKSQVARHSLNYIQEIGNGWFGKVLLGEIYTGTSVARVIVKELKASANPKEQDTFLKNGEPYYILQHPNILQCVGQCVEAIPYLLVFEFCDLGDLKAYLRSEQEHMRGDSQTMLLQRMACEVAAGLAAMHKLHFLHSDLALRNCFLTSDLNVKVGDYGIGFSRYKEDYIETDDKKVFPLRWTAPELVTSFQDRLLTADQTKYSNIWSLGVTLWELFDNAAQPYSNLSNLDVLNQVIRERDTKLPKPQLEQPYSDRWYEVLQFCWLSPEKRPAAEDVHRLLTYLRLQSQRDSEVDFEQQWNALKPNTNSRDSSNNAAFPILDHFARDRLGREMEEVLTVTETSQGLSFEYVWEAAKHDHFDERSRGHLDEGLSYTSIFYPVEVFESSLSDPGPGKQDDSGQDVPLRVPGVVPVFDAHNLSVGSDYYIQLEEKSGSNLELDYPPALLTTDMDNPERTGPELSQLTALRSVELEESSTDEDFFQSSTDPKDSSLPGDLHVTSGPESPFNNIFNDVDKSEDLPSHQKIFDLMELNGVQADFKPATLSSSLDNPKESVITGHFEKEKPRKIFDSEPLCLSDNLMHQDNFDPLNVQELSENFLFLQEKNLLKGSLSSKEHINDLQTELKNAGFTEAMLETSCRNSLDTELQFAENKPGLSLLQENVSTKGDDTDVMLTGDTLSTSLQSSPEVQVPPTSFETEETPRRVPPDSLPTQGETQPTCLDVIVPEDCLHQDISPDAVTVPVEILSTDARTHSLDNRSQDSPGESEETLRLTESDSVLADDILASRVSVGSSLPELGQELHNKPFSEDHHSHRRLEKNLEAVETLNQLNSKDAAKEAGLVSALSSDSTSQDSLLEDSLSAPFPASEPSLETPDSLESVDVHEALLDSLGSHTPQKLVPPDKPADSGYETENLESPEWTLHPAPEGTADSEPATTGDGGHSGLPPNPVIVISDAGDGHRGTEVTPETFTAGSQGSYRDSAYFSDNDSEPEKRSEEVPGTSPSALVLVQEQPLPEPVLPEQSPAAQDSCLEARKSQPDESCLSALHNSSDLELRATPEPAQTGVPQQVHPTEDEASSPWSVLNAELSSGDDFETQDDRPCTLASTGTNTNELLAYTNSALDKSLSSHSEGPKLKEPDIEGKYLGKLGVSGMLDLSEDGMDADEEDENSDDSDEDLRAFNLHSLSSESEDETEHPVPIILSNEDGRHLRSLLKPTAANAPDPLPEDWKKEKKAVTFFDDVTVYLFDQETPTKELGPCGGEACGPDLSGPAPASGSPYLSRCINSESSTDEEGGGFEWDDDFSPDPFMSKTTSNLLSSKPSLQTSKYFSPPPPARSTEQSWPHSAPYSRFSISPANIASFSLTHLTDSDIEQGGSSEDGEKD
UniProt P31152, whole entry: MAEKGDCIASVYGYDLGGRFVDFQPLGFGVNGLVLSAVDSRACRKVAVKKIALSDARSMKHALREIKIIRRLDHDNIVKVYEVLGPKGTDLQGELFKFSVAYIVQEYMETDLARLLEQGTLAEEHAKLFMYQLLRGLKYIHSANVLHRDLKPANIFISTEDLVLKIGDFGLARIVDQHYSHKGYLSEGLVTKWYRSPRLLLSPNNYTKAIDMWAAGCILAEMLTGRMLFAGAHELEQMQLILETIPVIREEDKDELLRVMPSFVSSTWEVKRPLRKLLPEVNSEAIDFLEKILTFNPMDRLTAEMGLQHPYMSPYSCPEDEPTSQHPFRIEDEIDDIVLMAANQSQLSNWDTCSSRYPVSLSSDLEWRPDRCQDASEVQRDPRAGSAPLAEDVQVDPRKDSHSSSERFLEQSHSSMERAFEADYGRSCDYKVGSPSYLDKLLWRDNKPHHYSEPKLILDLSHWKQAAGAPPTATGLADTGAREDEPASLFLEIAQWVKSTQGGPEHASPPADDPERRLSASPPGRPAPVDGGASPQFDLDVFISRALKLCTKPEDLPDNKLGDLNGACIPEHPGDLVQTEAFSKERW
UniProt P49137, whole entry, looked up: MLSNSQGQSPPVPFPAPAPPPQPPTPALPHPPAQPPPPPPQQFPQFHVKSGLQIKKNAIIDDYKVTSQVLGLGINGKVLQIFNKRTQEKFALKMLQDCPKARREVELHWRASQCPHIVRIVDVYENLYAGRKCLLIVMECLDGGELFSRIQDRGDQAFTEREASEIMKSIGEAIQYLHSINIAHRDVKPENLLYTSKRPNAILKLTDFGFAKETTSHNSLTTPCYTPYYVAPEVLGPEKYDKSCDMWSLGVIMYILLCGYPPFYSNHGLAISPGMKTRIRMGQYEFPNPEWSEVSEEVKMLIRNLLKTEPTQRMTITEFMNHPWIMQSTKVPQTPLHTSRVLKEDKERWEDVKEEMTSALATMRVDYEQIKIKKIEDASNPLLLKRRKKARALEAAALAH
UniProt Q9BUB5: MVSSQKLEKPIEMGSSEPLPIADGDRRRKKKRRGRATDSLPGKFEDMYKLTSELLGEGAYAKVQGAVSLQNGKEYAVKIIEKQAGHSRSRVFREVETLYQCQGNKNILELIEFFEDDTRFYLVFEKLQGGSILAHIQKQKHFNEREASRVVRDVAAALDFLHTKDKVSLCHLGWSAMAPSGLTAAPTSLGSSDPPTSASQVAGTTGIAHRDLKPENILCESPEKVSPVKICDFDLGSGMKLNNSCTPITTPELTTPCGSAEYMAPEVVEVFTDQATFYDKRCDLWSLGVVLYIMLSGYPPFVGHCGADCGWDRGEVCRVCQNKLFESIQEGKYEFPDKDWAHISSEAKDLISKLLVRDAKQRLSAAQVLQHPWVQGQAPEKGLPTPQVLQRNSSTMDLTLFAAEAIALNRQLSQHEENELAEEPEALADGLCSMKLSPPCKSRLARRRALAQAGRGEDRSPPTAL
UniProt O96013: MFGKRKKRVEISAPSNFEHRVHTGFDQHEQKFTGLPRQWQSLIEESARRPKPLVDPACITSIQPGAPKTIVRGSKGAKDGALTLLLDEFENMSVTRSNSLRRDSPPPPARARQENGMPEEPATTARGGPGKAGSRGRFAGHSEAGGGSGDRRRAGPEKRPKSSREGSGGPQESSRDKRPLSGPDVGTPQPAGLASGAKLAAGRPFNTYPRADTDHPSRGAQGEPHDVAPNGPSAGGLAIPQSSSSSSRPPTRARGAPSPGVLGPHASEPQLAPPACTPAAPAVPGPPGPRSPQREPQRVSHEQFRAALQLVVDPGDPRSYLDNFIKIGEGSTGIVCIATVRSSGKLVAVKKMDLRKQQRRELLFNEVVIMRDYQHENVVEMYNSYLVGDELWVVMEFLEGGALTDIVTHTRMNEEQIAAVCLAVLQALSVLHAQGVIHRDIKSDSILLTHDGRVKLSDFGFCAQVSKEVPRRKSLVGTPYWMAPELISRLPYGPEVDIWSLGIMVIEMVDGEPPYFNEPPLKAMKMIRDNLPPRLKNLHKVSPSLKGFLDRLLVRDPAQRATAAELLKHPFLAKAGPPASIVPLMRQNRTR
UniProt Q96KB5: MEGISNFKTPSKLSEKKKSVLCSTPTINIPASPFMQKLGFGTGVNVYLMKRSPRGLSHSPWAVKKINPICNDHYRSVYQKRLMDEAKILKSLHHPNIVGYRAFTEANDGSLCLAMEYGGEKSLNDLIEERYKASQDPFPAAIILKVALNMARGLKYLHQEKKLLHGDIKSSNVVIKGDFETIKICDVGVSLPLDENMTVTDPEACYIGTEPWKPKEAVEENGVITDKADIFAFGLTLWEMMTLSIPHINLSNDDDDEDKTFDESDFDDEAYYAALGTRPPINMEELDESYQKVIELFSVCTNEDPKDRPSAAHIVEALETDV

Measured: kinase-Nluc reporter destabilization hit call

Cc1[nH]c(/C=C2\C(=O)Nc3ccccc32)c(C)c1CCC(=O)O [(Z)-Orantinib] (10 µM)
inactive: [1] 0 | [2] 0 | [3] 0 | [4] 0 | [5] 0 | [6] 0 | [7] 0 | [8] 0 | [9] 0 | [10] 0 | [11] 0 | [12] 0 | [13] 0 | [14] 0 | [15] 0 | [16] 0 | [17] 0 | [18] 0 | [19] 0 | [20] 0

COc1ccccc1-c1cc(Nc2cccc(CS(N)(=O)=O)c2)ncn1 (10 µM)
inactive: [1] 0 | [2] 0 | [3] 0 | [4] 0 | [5] 0 | [6] 0 | [7] 0 | [8] 0 | [9] 0 | [10] 0 | [11] 0 | [12] 0 | [13] 0 | [14] 0 | [15] 0 | [16] 0 | [17] 0 | [18] 0 | [19] 0 | [20] 0

COc1cc2nccc(Oc3ccc(NC(=O)NC4CC4)c(Cl)c3)c2cc1C(N)=O [Lenvatinib] (10 µM)
inactive: [1] 0 | [2] 0 | [3] 0 | [4] 0 | [5] 0 | [6] 0 | [7] 0 | [8] 0 | [9] 0 | [10] 0 | [11] 0 | [12] 0 | [13] 0 | [14] 0 | [15] 0 | [16] 0 | [17] 0 | [18] 0 | [19] 0 | [20] 0

CCc1cc2c(cc1N1CCC(N3CCOCC3)CC1)C(C)(C)c1[nH]c3cc(C#N)ccc3c1C2=O [Alectinib] (10 µM)
inactive: [1] 0 | [2] 0 | [3] 0 | [4] 0 | [5] 0 | [6] 0 | [7] 0 | [8] 0 | [9] 0 | [10] 0 | [11] 0 | [12] 0 | [13] 0 | [14] 0 | [15] 0 | [16] 0 | [17] 0 | [18] 0 | [19] 0 | [20] 0

O=C(Nc1cn[nH]c1-c1ccccn1)c1nn(C2CCNCC2)cc1Cl (10 µM)
inactive: [1] 0 | [2] 0 | [3] 0 | [4] 0 | [5] 0 | [6] 0 | [7] 0 | [8] 0 | [9] 0 | [10] 0 | [11] 0 | [12] 0 | [13] 0 | [14] 0 | [15] 0 | [16] 0 | [17] 0 | [18] 0 | [19] 0 | [20] 0

CCNc1nc(Nc2cc(F)c(C(=O)N3CCOCC3)cc2OC)ncc1C(F)(F)F [GNE-7915 (tosylate)] (10 µM)
inactive: [1] 0 | [2] 0 | [3] 0 | [4] 0 | [5] 0 | [6] 0 | [7] 0 | [8] 0 | [9] 0 | [10] 0 | [11] 0 | [12] 0 | [13] 0 | [14] 0 | [15] 0 | [16] 0 | [17] 0 | [18] 0 | [19] 0 | [20] 0

Cc1cccc(-c2[nH]ncc2-c2ccc(F)c(-c3cnn(CCO)c3)c2)n1 (10 µM)
inactive: [1] 0 | [2] 0 | [3] 0 | [4] 0 | [5] 0 | [6] 0 | [7] 0 | [8] 0 | [9] 0 | [10] 0 | [11] 0 | [12] 0 | [13] 0 | [14] 0 | [15] 0 | [16] 0 | [17] 0 | [18] 0 | [19] 0 | [20] 0

COc1ccc(Cl)c(Nc2nc3ccccc3nc2NS(=O)(=O)c2cccc(NC(=O)C(C)(C)N)c2)c1 [Pilaralisib] (10 µM)
inactive: [1] 0 | [2] 0 | [3] 0 | [4] 0 | [5] 0 | [6] 0 | [7] 0 | [8] 0 | [9] 0 | [10] 0 | [11] 0 | [12] 0 | [13] 0 | [14] 0 | [15] 0 | [16] 0 | [17] 0 | [18] 0 | [19] 0 | [20] 0

C=CC(=O)Nc1cc(Nc2ncc(Cl)c(-c3c[nH]c4ccccc34)n2)c(OC)cc1N(C)CCN(C)C [Mutant EGFR inhibitor] (2.5 µM)
inactive: [1] 0 | [2] 0 | [3] 0 | [4] 0 | [5] 0 | [6] 0 | [7] 0 | [8] 0 | [9] 0 | [10] 0 | [11] 0 | [12] 0 | [13] 0 | [14] 0 | [15] 0 | [16] 0 | [17] 0 | [18] 0 | [19] 0 | [20] 0

Reference: the supplement of paper PMC12823440, “Inhibitors supercharge kinase turnover through native proteolytic circuits” (Nature, 2025)
